Data: PMC5314169, “Structure of the Branched-chain Amino Acid and GTP-sensing Global Regulator, CodY, from Bacillus subtilis*” (The Journal of Biological Chemistry, 2016)

Columns and labels:
[1] = target: T1, CodY (wild type, C-terminal His5) (Bacillus subtilis) (UniProt P39779); experiment: EMSA; details: no ILV, EMSA: 20 mM Tris-Cl pH 8.0, 50 mM KCl, 2 mM MgCl2, 5% glycerol, 0.5 mM EDTA, 1 mM DTT, 0.05% Nonidet P, salmon sperm DNA (printed 40-25 ug/ml), room temperature 16 min, recombinant protein, residues 2-259, protein details: C-terminal His5
T1 sequence (looked up): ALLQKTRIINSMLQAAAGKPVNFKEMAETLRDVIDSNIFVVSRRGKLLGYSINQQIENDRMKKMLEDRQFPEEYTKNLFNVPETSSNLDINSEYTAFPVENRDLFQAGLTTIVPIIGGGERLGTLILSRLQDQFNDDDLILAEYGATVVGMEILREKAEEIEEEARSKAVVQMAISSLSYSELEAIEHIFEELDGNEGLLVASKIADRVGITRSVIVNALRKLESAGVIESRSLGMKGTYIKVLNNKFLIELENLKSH

[2] = target: T2, CodY(L3S)-His5 (Bacillus subtilis) (UniProt P39779); experiment: EMSA; details: 10 mM Ile/Leu/Val, EMSA: 20 mM Tris-Cl pH 8.0, 50 mM KCl, 2 mM MgCl2, 5% glycerol, 0.5 mM EDTA, 1 mM DTT, 0.05% Nonidet P, salmon sperm DNA (printed 40-25 ug/ml), room temperature 16 min, recombinant protein, protein details: C-terminal His5
T2 sequence (looked up, limits assumed): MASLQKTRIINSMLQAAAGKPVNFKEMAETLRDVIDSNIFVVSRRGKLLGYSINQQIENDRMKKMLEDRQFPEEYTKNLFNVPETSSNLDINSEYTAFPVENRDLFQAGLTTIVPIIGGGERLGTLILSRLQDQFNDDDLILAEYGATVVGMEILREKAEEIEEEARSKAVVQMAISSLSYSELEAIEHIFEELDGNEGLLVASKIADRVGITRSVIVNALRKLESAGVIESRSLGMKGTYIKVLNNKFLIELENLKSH

[3] = target: T3, CodY (wild type, SEC-MALLS sample) (Bacillus subtilis) (UniProt P39779); experiment: SEC-MALLS; details: recombinant protein
T3 sequence (looked up, limits assumed): T2 sequence (looked up, limits assumed) with S3L

“CAAAATAAAAAATTTGTCGAATTTTCTGAAAATTTT (double strand) [BcaPp8(36)]”: binds more weakly ([1]; no C1 complex, label: 32P 5' on one strand in EMSA); binds more weakly ([2]; less efficient than wild type, C2 only, label: 32P 5' on one strand in EMSA).
“TAAAAAATTTGTCGAATTTTCTGAAAATTTT (double strand) [BcaPp8(31)]”: binds more weakly ([1]; no C1 complex, label: 32P 5' on one strand).
“CGAATTTTCTGAAAATTTT (double strand) [BcaPp8(19)]”: binds more weakly ([1]; very dramatic loss of affinity, label: 32P 5' on one strand); binds more weakly ([2]; very weak, label: 32P 5' on one strand).
“CAAAATAAAAAATTTGTCGAATTTTCTGAAAATTTT (double strand) [BcaPp8(36) unlabeled (BcaP36)]”: binds ([3]; 10 mM isoleucine, ~130 kDa, four CodY per duplex); binds more weakly ([3]; no isoleucine, ~70 kDa, dissociating complex).

Substitutions are numbered along the chain they refer to. Construct, isoform or probe ends are uncertain for at least one entry. The comparison behind a weaker result is the experiment's own reference, which may not be listed here. Where a protein sequence is shown, tags need not be part of it.
